Measured values published in paper PMC3287977.

target: T1, GST-tagged A. fulgidus HypA (Archaeoglobus fulgidus) (UniProt O28904); test: pull-down; GST-AfHypA as bait on glutathione resin; lysate of His-SUMO-AfHypB (or variant) treated with SUMO protease, mixed with GST-AfHypA lysate; washed with PBS; eluted with 20 mM Tris pH 8.0, 0.1 M NaCl, 20 mM GSH; SDS-PAGE, Coomassie
T1 sequence: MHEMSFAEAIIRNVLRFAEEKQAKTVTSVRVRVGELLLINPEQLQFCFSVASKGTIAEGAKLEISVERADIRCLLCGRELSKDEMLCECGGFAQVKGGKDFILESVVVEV

Substance | binding
C-terminal truncated A. fulgidus HypB variant (ΔC) (Archaeoglobus fulgidus) (domain or fragment) | binds
A. fulgidus HypB clustered-charge-to-alanine variant C12 (Archaeoglobus fulgidus) | binds
A. fulgidus HypB Y4A (Archaeoglobus fulgidus) | no binding
A. fulgidus HypB L6A (Archaeoglobus fulgidus) | no binding

Other lines, results leading:

binding | Substance
binds | A. fulgidus HypB clustered-charge-to-alanine variant C11 (Archaeoglobus fulgidus)
binds | A. fulgidus HypB E5A (Archaeoglobus fulgidus)
binds | A. fulgidus HypB clustered-charge-to-alanine variant C10 (Archaeoglobus fulgidus)
no binding | N-terminal truncated A. fulgidus HypB variant (ΔN) (Archaeoglobus fulgidus) (domain or fragment)
binds | A. fulgidus HypB, tag-free (Archaeoglobus fulgidus)

target: T2, A. fulgidus HypA, tag-free (Archaeoglobus fulgidus) (UniProt O28904); test: condition: only AfHypB preloaded with GMPPNP and Ni (dimeric form); SEC-MALS; equimolar AfHypA and AfHypB preloaded with GMPPNP and Ni (dimeric form); Superdex-75 HR10/30, 50 mM Tris pH 7.5, 0.2 M NaCl, 1 mM TCEP, room temperature; peaks checked by SDS-PAGE; both purified
T2 sequence: T1 sequence

binding | Substance
no binding | A. fulgidus HypB, tag-free (Archaeoglobus fulgidus)

These are yes or no findings as the source states them, for the method shown. For some of these results: Binding seen in cells or lysates may run through a third protein. For some of these results: Binding calls can cover weak binding; strength is not graded here. Where a sequence is shown, tags or fusion partners need not be part of it.
